Source: PubChem BioAssay AID743454 (Peter MacCallum Cancer Centre, 2014)

Test: 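Search for knock-downs that restore vorinostat killing in resistant colon cancer cells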 (primary screen)
Cell system: human HCT116-VR colon cancer cells, selected for vorinostat resistance
Reagents: siRNA pool against human genes, 40 nM siRNA pool
Timing: vorinostat for 24 h, read-out about 72 h after transfection
Conditions: vorinostat at 2.5 µM final
Measurement: 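Cell viability by CellTiter-Fluor and caspase 3/7 activity by luminescence, each scaled to mock wells per plate, duplicates averaged, then robust z-scored over all plates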
Direction: viability robust z-score: higher = more viable cells than screen typical; caspase robust z-score: higher = more caspase 3/7 activity than screen typical
Hit rule: 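Hits are knock-downs in viability class RV1/RV2 or caspase class CA1/CA2, excluding ones that killed cells in the no-drug cell-count arm; hits then retested with single siRNAs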
Here is an unselected part of about 18,000 deposited reagents. Of all reagents, 450 (2.5%) were called active. 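Single biological run; no consistent viability z cut-off exists, so the class columns, not z-scores, define the calls.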 Unmarked entries are inactive.

What did the screen give for LOC284009?
viability hit class: no change; caspase hit class: no change; viability robust z-score: 0.82; caspase robust z-score: 0.08

With SAXO1, what was measured?
viability hit class: no change; caspase hit class: no change; viability robust z-score: 1.61; caspase robust z-score: -0.31

With ACP5, what was measured?
viability hit class: no change; caspase hit class: no change; viability robust z-score: -0.54; caspase robust z-score: 1.41

What is on record for ANGPTL7?
viability hit class: no change; caspase hit class: no change; viability robust z-score: -1.04; caspase robust z-score: 1.16

How did the screen score TSEN2?
viability hit class: no change; caspase hit class: no change; viability robust z-score: 0.94; caspase robust z-score: 0.3

With FGF17, what was measured?
viability hit class: no change; caspase hit class: no change; viability robust z-score: 0.3; caspase robust z-score: -0.85

What is on record for MYO1A?
viability hit class: no change; caspase hit class: no change; viability robust z-score: -0.08; caspase robust z-score: 1.62

With PIBF1, what was measured?
viability hit class: no change; caspase hit class: no change; viability robust z-score: 1.01; caspase robust z-score: -0.48

What did the screen give for ISG15?
viability hit class: no change; caspase hit class: no change; viability robust z-score: -0.92; caspase robust z-score: -0.7

With DEPDC7, what does the deposit list?
viability hit class: no change; caspase hit class: no change; viability robust z-score: 1.5; caspase robust z-score: -0.2

Which result is listed for MED21?
viability hit class: no change; caspase hit class: no change; viability robust z-score: -2.92; caspase robust z-score: 2.36

With ST3GAL3, what was measured?
viability hit class: no change; caspase hit class: no change; viability robust z-score: -1.84; caspase robust z-score: -0.53

What did the screen give for MSH4?
viability hit class: no change; caspase hit class: no change; viability robust z-score: 0.36; caspase robust z-score: 2.08

How did the screen score COL5A3?
viability hit class: no change; caspase hit class: no change; viability robust z-score: 0.88; caspase robust z-score: -0.88

In a second layout: 2 of the entries above
TSEN2
- viability hit class: no change
- caspase hit class: no change
- viability robust z-score: 0.94
- caspase robust z-score: 0.3

FGF17
- viability hit class: no change
- caspase hit class: no change
- viability robust z-score: 0.3
- caspase robust z-score: -0.85
